# Test results taken from patent US20160201132A1, “GENE EXPRESSION BIOMARKERS OF LAQUINIMOD RESPONSIVENESS” (Teva Pharmaceutical Industries Ltd., priority 2013, published 2016).
# This continues a long series; more values of the same kind are listed elsewhere.
# Test system: PBMC of RRMS patients
# Assay: Gene expression microarray analysis (HG-U133A-2) of PBMC from RRMS patients treated with LAQ, ancillary study to ALLEGRO
# Assay type: in vivo, human
# Conditions: for Fold-Change (4.0 vs. 0.0): after six months of treatment; for Fold-Change (1.0 vs. 0.0): one month of treatment
# Source text: The goal of this ancillary study was to characterize gene expression changes and corresponding biological mechanisms induced in PBMC of RRMS patients by LAQ treatment. According to ALLEGRO clinical trial inclusion criteria, 25 patients were randomly assigned to receive LAQ (n=13, age 38.8±2.3 years, female/male ratio: 8/5) or placebo (n=12, age 37.2±3.4 years, female/male ratio: 8/4).
# Peripheral blood samples were obtained from RRMS patients at baseline before start of LAQ treatment or placebo, after 0, 1, 6 and 24 month of treatment (visit 0, 1, 6 and 7 according to ALLEGRO clinical trial protocol correspondently) for gene microarray analysis.
# Briefly, 1) Peripheral blood mononuclear cells (PBMC) were obtained from RRMS patients that participated in ALLEGRO and were treated daily with 0.6 mg LAQ or placebo. PBMC were subjected for gene expression analysis (HU-133A-2-Affymatrix arrays) at baseline and at 1 and 6 months of LAQ treatment; 2) Data was analyzed by Partek Genomics Solution software. Most informative genes (MIGs) were defined as those that differentiated between groups with p<0.01. Gene functional annotation, enrichment and pathway analysis were performed by Ingenuity software. For each time point, genes that changed in placebo group were excluded from further analysis; and 3) Verification of LAQ related mechanism was performed by Western blot.
# PBMC were extracted from 15 ml peripheral blood, separated by Ficoll-Hypaque gradient. Total RNA was extracted using both Trizol (Invitrogen, USA) and Phase-Lock-Gel columns (Eppendorf, Germany) including a DNase digestion step. RNA integrity was assessed by RNA Experion automated electrophoresis system (Bio-Rad Laboratories, Hercules, Calif.).
# Probe synthesis using 3 μg total RNA, hybridization, detection, and scanning was performed according to the standard Affymetrix, Inc. USA protocols; cDNA was synthesized using the Two-Cycle cDNA Synthesis Kit (Affymetrix, Inc., USA), and in-vitro transcription performed with the GeneChip IVT Labeling Kit (Affymetrix, Inc., USA). The biotin-labeled IVT-RNA was hybridized to HG-U133A-2 arrays containing 18,400 gene transcripts, each corresponding to 14,500 well-annotated human genes, washed in a GeneChip Fluidics Station 450 (Hewlett Packard, USA, GeneArray-™ scanner G2500A) and scanned according to the manufacturer's protocol (Affymetrix, Inc., USA).
# Data analysis was performed on Partek Genomics Solution software (www.partek.com; Partek Incorporated, St. Louis, Mo.). Expression values were computed from raw CEL files by applying the Robust Multi-Chip Average (RMA) background correction algorithm. RMA correction included: 1) values background correction; 2) quintile normalization; 3) log 2 transformation; and 4) median polish summarization. The ANOVA, Repeated Measures and correlation analysis implicated in Partek software ware applied to evaluate LAQ effects. Most informative genes MIGs were defined as those that differentiated between experimental groups with p<0.01. All p-values were calculated for False Discovery Rate (FDR) multiple test correction at p=0.05.
# Additionally, significance of individual genes was tested by parametric T-test and non parametric Mann-Whitney test using Bootstrapping approach based on repeated permutations of the data with 5% FDR for multiple testing.
# Gene functional annotation, enrichment, and pathway analyses to identify the leading biological pathways that operated under LAQ treatment were performed by Ingenuity Pathways Analysis software (www.ingenuity.com).
# ANOVA analysis was used to compare PBMC gene expression after 1, 6 or 24 month of LAQ treatment with baseline gene expression.
# For each time point inventors performed analysis source of variation in dataset. (FIG. 1). Age, gender and batch effects were considered as confounders regarding LAQ or Placebo related changes. For each time point genes associated with Placebo effect were evaluated and excluded from further analysis. […]
compound,measurement,setting,value
"CCN(C(=O)c1c(O)c2c(Cl)cccc2n(C)c1=O)c1ccccc1 [LAQ, 5-chloro-N-ethyl-4-hydroxy-1-methyl-2-oxo-N-phenyl-1,2-dihydroquinoline-3-carboxamide]",Fold-Change (4.0 vs. 0.0),LOC729143 /// MPRIP expression,−1.213
same,Fold-Change (4.0 vs. 0.0),LOH3CR2A expression,−1.216
same,Fold-Change (4.0 vs. 0.0),LPIN1 expression,−1.21
same,Fold-Change (4.0 vs. 0.0),LPO expression,−1.213
same,Fold-Change (1.0 vs. 0.0),LTBP1 202728_s_at,−1.48
same,Fold-Change (1.0 vs. 0.0),LTBP1 202729_s_at,−1.71
same,Fold-Change (4.0 vs. 0.0),LTBP4 expression,−1.202
same,Fold-Change (4.0 vs. 0.0),MAGEL2 expression,−1.218
same,Fold-Change (4.0 vs. 0.0),MAP2K5 expression,−1.213
same,Fold-Change (4.0 vs. 0.0),MAP2 expression,−1.201
same,Fold-Change (1.0 vs. 0.0),MARCH2 210075_at,−1.3917
same,Fold-Change (4.0 vs. 0.0),MASP1 expression,−1.2109
same,Fold-Change (4.0 vs. 0.0),MAST1 expression,−1.216
same,Fold-Change (1.0 vs. 0.0),MAX 209331_s_at,−1.245
same,Fold-Change (4.0 vs. 0.0),MBD2 expression,−1.209
same,Fold-Change (4.0 vs. 0.0),MBNL2 expression,−1.212
same,Fold-Change (4.0 vs. 0.0),MBP expression,−1.217
same,Fold-Change (4.0 vs. 0.0),MC4R expression,−1.206
same,Fold-Change (4.0 vs. 0.0),MCM10 expression,−1.202
same,Fold-Change (4.0 vs. 0.0),METTL10 expression,−1.207
same,Fold-Change (4.0 vs. 0.0),MFAP2 expression,−1.202
same,Fold-Change (4.0 vs. 0.0),MFAP4 expression,−1.2209
same,Fold-Change (4.0 vs. 0.0),MLXIPL expression,−1.224
same,Fold-Change (1.0 vs. 0.0),MMRN1 205612_at,−1.376
same,Fold-Change (4.0 vs. 0.0),MOGAT2 expression,−1.214
same,Fold-Change (4.0 vs. 0.0),MPL expression,−1.207
same,Fold-Change (4.0 vs. 0.0),MT1E /// MT1H /// MT1M expression,−1.214
same,Fold-Change (1.0 vs. 0.0),MTMR1 213511_s_at,−1.098
same,Fold-Change (4.0 vs. 0.0),MTSS1L expression,−1.22
same,Fold-Change (4.0 vs. 0.0),MTSS1 expression,−1.219
same,Fold-Change (4.0 vs. 0.0),MYF6 expression,−1.216
same,Fold-Change (4.0 vs. 0.0),MYL10 expression,−1.196
same,Fold-Change (4.0 vs. 0.0),MYO3A expression,−1.197
same,Fold-Change (4.0 vs. 0.0),NAPA expression,−1.202
same,Fold-Change (4.0 vs. 0.0),NARFL expression,−1.199
same,Fold-Change (4.0 vs. 0.0),NCR2 expression,−1.196
same,Fold-Change (1.0 vs. 0.0),NKTR 202380_s_at,−1.123
same,Fold-Change (4.0 vs. 0.0),NNMT expression,−1.21
same,Fold-Change (4.0 vs. 0.0),NTRK2 expression,−1.209
same,Fold-Change (4.0 vs. 0.0),NXN expression,−1.214
same,Fold-Change (4.0 vs. 0.0),NXPH3 expression,−1.208
same,Fold-Change (4.0 vs. 0.0),OBSL1 expression,−1.201
same,Fold-Change (4.0 vs. 0.0),OR2S2 expression,−1.196
same,Fold-Change (4.0 vs. 0.0),OR10H3 expression,−1.2243
same,Fold-Change (4.0 vs. 0.0),ORC1L expression,−1.224
same,Fold-Change (4.0 vs. 0.0),P2RY1 expression,−1.214
same,Fold-Change (4.0 vs. 0.0),PARD6B expression,−1.207
same,Fold-Change (4.0 vs. 0.0),PAWR expression,−1.2152
same,Fold-Change (1.0 vs. 0.0),PCDH24 220186_s_at,−1.121
same,Fold-Change (4.0 vs. 0.0),PCIF1 expression,−1.223
same,Fold-Change (1.0 vs. 0.0),PCNP 217816_s_at,−1.135
same,Fold-Change (4.0 vs. 0.0),PCP4 expression,−1.203
same,Fold-Change (4.0 vs. 0.0),PDE6H expression,−1.203
same,Fold-Change (1.0 vs. 0.0),PF4 206390_x_at,−1.764
same,Fold-Change (4.0 vs. 0.0),PHF20L1 expression,−1.208
same,Fold-Change (4.0 vs. 0.0),PI15 expression,−1.216
same,Fold-Change (4.0 vs. 0.0),PKLR expression,−1.219
same,Fold-Change (4.0 vs. 0.0),PLA2G5 expression,−1.221
same,Fold-Change (4.0 vs. 0.0),PLCD1 expression,−1.2171
same,Fold-Change (4.0 vs. 0.0),PLCE1 expression,−1.225
same,Fold-Change (4.0 vs. 0.0),PLSCR2 expression,−1.217
same,Fold-Change (4.0 vs. 0.0),PLXNA2 expression,−1.199
same,Fold-Change (4.0 vs. 0.0),PNLIPRP1 expression,−1.207
same,Fold-Change (4.0 vs. 0.0),POLR3G expression,−1.22
same,Fold-Change (1.0 vs. 0.0),POM121 /// POM121C 212178_s_at,−1.091
same,Fold-Change (1.0 vs. 0.0),PPBP 214146_s_at,−1.46
same,Fold-Change (4.0 vs. 0.0),PPP2R3A expression,−1.197
same,Fold-Change (4.0 vs. 0.0),PRAMEF1 /// PRAMEF2 expression,−1.221
same,Fold-Change (4.0 vs. 0.0),PRELP expression,−1.214
same,Fold-Change (1.0 vs. 0.0),PRKAR2B 203680_at,−1.876
same,Fold-Change (4.0 vs. 0.0),PRLR expression,−1.196
same,Fold-Change (4.0 vs. 0.0),PRPH expression,−1.204
same,Fold-Change (4.0 vs. 0.0),PSG3 expression,−1.202
same,Fold-Change (1.0 vs. 0.0),PSMD11 208776_at,−1.122
same,Fold-Change (1.0 vs. 0.0),PTCRA 211252_x_at,−1.389
same,Fold-Change (4.0 vs. 0.0),RAB40C expression,−1.207
same,Fold-Change (4.0 vs. 0.0),RANBP3 expression,−1.2033
same,Fold-Change (4.0 vs. 0.0),RAPGEFL1 expression,−1.218
same,Fold-Change (4.0 vs. 0.0),RARG expression,−1.212
same,Fold-Change (4.0 vs. 0.0),RASGRP2 expression,−1.211
same,Fold-Change (4.0 vs. 0.0),RBMY2FP expression,−1.211
same,Fold-Change (4.0 vs. 0.0),RDH8 expression,−1.215
